# In the supplement of paper PMC12595434, “Development of retinoid nuclear receptor pathway antagonists through targeting aldehyde dehydrogenase 1A3” (iScience, 2025):
# Sequences of proteins named here, by UniProt entry; tags and fusion partners are left off. A change or cut given only in a name is not applied to a line headed by its entry.
# UniProt Q9HC36: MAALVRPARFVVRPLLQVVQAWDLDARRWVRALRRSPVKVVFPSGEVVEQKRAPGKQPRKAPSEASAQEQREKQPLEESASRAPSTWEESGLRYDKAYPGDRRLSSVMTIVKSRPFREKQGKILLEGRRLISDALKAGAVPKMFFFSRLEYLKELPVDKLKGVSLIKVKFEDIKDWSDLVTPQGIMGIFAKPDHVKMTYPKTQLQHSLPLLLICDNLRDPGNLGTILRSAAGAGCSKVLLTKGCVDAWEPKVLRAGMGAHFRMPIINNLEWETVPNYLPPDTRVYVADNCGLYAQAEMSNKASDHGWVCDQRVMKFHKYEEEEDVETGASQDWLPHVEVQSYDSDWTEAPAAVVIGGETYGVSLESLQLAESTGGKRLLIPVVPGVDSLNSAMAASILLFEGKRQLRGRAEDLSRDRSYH
# UniProt Q9H9P8: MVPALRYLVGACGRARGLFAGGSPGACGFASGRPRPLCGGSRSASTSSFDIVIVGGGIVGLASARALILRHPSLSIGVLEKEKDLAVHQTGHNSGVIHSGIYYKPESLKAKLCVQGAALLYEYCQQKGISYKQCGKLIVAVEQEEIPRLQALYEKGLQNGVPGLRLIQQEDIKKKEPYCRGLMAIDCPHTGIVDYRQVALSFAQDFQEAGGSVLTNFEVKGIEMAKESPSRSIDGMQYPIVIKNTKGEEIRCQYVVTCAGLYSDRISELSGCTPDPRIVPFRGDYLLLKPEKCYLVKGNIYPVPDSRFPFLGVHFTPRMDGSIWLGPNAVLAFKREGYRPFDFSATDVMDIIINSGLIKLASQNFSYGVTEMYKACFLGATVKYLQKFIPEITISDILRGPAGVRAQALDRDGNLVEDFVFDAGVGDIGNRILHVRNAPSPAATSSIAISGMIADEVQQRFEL
# UniProt Q9NQS1: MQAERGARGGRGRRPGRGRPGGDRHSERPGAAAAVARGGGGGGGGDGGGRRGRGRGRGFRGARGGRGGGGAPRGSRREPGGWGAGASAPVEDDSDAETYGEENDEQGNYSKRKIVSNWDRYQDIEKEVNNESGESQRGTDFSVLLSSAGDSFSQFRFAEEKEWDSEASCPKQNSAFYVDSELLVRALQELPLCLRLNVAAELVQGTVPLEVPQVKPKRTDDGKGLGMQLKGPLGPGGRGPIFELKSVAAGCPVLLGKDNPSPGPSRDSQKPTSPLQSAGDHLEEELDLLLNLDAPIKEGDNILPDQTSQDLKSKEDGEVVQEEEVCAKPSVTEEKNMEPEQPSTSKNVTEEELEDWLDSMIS
# UniProt Q9HB71, whole entry: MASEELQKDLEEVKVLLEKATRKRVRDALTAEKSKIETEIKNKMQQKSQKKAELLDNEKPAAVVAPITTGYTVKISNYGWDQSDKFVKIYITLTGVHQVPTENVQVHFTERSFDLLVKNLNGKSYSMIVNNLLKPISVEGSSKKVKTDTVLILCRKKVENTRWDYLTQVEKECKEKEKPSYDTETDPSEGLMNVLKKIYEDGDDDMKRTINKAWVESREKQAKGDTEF
# UniProt Q9H9F9, whole entry: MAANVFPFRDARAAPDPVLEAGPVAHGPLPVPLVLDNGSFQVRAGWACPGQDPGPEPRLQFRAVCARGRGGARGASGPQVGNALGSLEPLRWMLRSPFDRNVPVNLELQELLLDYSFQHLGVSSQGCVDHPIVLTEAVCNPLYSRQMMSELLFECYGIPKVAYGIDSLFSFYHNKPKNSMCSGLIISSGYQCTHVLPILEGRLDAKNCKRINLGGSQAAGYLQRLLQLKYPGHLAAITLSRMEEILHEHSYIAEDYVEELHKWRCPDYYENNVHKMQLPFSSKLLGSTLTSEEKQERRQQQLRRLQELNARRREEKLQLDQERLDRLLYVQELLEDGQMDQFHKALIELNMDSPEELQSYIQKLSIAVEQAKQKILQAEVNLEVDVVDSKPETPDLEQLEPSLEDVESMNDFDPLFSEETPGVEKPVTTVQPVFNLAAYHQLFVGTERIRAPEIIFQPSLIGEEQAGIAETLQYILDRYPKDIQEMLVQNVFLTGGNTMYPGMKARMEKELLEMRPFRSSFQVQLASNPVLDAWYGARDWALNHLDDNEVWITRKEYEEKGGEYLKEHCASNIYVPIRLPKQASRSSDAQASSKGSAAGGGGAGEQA
# UniProt Q9H8X2: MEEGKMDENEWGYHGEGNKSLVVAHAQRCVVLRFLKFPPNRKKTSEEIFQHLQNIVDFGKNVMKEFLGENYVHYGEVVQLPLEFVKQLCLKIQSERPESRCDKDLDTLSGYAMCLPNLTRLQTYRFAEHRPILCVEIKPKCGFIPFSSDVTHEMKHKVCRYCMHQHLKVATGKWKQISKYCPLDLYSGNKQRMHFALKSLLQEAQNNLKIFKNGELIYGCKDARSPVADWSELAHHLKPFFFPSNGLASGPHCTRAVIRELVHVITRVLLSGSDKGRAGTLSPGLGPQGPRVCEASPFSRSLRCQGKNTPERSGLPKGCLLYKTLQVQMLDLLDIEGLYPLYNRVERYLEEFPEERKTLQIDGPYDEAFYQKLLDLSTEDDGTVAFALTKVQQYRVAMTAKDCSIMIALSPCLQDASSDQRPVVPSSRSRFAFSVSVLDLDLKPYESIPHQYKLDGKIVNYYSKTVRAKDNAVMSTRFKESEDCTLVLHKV
# UniProt Q9H936: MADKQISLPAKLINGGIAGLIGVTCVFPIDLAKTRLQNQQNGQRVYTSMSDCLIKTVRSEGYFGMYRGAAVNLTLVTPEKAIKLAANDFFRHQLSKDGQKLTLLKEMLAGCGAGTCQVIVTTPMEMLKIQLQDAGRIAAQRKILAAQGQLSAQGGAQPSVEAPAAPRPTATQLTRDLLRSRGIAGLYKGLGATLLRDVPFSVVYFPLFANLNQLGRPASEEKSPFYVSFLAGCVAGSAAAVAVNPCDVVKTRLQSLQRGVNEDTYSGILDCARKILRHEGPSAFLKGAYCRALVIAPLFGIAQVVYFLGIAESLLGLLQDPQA
# UniProt Q9NRG9: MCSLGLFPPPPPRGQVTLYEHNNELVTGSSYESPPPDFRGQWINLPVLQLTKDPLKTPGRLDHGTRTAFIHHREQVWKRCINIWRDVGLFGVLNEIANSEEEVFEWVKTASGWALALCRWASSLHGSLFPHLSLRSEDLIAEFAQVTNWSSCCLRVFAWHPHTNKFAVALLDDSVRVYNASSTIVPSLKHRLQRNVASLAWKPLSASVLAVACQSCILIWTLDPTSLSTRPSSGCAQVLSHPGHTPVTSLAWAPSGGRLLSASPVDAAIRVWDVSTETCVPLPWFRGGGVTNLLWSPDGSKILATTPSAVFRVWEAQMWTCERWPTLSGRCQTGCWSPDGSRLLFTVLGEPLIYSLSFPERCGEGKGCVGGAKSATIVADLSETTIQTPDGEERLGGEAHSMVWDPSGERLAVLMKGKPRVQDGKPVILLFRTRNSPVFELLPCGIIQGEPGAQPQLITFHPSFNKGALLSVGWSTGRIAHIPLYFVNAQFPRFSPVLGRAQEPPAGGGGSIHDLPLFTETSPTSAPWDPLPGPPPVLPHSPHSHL
# UniProt Q9NQX3: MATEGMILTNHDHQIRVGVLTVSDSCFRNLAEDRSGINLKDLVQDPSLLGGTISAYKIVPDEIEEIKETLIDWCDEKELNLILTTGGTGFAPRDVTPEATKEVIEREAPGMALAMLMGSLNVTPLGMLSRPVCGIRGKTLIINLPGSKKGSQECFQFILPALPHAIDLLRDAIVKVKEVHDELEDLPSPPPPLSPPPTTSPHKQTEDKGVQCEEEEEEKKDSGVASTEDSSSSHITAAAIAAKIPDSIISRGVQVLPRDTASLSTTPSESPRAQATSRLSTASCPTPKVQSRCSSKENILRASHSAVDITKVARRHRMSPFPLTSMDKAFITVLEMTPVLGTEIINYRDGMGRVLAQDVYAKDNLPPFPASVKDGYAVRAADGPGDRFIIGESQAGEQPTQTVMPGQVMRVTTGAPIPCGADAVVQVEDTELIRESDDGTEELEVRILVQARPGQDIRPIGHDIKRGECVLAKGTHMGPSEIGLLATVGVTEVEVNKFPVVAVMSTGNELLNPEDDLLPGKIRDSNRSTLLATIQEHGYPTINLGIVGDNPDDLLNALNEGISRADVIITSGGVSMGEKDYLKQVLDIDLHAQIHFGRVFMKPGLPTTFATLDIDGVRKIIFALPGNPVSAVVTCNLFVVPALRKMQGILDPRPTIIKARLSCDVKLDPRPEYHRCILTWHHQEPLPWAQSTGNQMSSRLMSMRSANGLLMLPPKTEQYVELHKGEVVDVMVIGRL
# UniProt Q9H9B1: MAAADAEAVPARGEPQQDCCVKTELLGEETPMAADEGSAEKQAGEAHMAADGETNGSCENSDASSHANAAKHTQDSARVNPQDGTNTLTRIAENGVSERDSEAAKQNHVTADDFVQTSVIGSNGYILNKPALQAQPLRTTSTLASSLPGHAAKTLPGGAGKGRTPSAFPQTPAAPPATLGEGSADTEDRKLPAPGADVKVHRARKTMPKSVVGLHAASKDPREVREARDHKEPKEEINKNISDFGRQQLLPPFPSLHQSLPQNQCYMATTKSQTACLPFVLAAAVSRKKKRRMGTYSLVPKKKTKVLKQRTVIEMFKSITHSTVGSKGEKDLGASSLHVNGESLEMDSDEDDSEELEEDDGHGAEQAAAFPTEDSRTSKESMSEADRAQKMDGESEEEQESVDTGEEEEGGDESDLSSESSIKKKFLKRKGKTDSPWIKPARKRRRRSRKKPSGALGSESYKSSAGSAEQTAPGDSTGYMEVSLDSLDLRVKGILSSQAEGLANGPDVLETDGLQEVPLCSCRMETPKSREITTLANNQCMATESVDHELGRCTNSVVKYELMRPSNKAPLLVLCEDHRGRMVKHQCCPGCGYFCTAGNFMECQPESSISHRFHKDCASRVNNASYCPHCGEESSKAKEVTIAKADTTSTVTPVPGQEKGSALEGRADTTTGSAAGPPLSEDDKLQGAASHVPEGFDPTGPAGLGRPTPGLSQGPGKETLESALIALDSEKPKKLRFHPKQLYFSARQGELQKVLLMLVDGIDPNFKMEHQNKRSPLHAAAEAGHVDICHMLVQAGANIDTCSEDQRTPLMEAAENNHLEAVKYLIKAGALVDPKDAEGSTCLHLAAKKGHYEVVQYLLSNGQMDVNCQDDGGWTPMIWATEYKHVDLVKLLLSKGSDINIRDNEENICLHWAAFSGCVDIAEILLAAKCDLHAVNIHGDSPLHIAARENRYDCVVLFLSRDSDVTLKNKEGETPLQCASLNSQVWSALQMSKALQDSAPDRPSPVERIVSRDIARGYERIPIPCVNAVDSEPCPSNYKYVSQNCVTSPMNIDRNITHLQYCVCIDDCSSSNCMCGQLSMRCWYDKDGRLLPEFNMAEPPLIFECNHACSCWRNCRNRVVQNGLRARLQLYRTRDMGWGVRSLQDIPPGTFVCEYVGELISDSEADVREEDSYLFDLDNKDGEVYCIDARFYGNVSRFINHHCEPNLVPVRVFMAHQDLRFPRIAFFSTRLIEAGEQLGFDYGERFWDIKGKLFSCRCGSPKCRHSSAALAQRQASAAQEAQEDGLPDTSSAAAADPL
# UniProt Q9NRW7: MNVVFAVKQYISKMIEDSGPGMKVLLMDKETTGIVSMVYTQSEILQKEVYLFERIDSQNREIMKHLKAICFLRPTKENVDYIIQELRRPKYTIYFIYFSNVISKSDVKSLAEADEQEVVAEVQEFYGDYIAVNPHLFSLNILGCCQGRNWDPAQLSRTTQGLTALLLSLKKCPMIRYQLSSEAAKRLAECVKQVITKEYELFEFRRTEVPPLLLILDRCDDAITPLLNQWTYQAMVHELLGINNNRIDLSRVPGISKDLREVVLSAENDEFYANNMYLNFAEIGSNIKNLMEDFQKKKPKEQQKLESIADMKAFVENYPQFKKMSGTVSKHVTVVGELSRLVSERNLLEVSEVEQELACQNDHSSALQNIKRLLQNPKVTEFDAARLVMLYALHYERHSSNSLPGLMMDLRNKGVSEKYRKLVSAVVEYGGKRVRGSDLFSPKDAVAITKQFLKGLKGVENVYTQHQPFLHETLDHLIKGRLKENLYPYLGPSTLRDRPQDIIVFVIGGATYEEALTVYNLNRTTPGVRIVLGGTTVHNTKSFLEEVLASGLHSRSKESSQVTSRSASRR
# UniProt Q9HA64: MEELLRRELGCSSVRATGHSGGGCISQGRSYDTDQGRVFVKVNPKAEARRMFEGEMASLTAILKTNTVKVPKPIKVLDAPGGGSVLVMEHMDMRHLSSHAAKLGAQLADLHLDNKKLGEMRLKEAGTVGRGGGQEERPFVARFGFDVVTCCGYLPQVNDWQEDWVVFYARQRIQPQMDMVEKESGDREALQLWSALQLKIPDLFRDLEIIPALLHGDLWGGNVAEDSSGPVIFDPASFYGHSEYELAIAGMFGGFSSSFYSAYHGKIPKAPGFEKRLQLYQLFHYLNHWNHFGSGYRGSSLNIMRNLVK
# UniProt Q9HBH1: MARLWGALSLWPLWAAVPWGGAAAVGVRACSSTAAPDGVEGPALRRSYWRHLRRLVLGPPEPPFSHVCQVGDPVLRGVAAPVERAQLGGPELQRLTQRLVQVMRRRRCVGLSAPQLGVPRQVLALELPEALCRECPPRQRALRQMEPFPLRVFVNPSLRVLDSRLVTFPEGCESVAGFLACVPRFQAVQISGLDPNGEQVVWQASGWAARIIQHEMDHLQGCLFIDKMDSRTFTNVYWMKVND
# Some of the results follow. Single values of this set are uncertain.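 Many melting curves are irregular; where none melted, Tm was taken as 64 °C.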
# Compound: CCc1cnccc1C(=O)Nc1cc2c(cc1F)NC(=O)CC2
# Assay: melting temperature shift (DMSO Tm minus MBE1-treated Tm) in cellular thermal proteome profiling; higher = less thermal stabilization by MBE1 (negative = stabilized by MBE1)
# Details: A375
Target,melting temperature shift (MBE1 concentration: 100 nM) [°C],melting temperature shift (MBE1 concentration: 1 uM) [°C]
RTN4 (UniProt Q9NQC3),-2.49,-0.744
MRM3 (UniProt Q9HC36),-0.99,0.525
L2HGDH (UniProt Q9H9P8),-1.7,0.241
AVEN (UniProt Q9NQS1),-0.443,0.333
UniProt Q9NS73,-1.59,-4.58
BAZ1A (UniProt Q9NRL2),-0.31,-0.506
PDS5B (UniProt Q9NTI5),-1.02,-0.523
CACYBP (UniProt Q9HB71),-0.543,-0.449
HEBP1 (UniProt Q9NRV9),-0.754,0.843
ACTR5 (UniProt Q9H9F9),-0.838,0.327
SDF2L1 (UniProt Q9HCN8),-0.349,2.28
PHPT1 (UniProt Q9NRX4),-0.0201,0.0183
UniProt Q9NP90,1.75,1.52
XAB2 (UniProt Q9HCS7),-0.0705,-0.429
GPN1 (UniProt Q9HCN4),-0.853,-2.27
AGPAT5 (UniProt Q9NUQ2),-0.244,0.44
GORASP2 (UniProt Q9H8Y8),0.965,0.354
IPPK (UniProt Q9H8X2),-1.39,-0.391
SPATS2L (UniProt Q9NUQ6),0.254,0.188
SLC25A22 (UniProt Q9H936),-1.16,-1.4

# A second format for part of the listing above:
Target	melting temperature shift (MBE1 concentration: 100 nM) [°C]	melting temperature shift (MBE1 concentration: 1 uM) [°C]
L2HGDH (UniProt Q9H9P8)	-1.7	0.241
PDS5B (UniProt Q9NTI5)	-1.02	-0.523
HEBP1 (UniProt Q9NRV9)	-0.754	0.843
ACTR5 (UniProt Q9H9F9)	-0.838	0.327
PHPT1 (UniProt Q9NRX4)	-0.0201	0.0183
XAB2 (UniProt Q9HCS7)	-0.0705	-0.429
GPN1 (UniProt Q9HCN4)	-0.853	-2.27
AGPAT5 (UniProt Q9NUQ2)	-0.244	0.44
GORASP2 (UniProt Q9H8Y8)	0.965	0.354
IPPK (UniProt Q9H8X2)	-1.39	-0.391
SPATS2L (UniProt Q9NUQ6)	0.254	0.188

# Following part

Target,melting temperature shift (MBE1 concentration: 100 nM) [°C],melting temperature shift (MBE1 concentration: 1 uM) [°C]
PLGRKT (UniProt Q9HBL7),-6.51,2.11
PARVB (UniProt Q9HBI1),0.666,0.354
AASDHPPT (UniProt Q9NRN7),-0.315,0.263
MED20 (UniProt Q9H944),0.336,0.458
AAAS (UniProt Q9NRG9),0.134,1.3
GPHN (UniProt Q9NQX3),-2.18,-1.1
MRPL44 (UniProt Q9H9J2),1.01,0.653
SNX15 (UniProt Q9NRS6),-0.396,1.21
EMC7 (UniProt Q9NPA0),-0.475,-0.469
UQCC1 (UniProt Q9NVA1),-1.09,1.37
ECHDC1 (UniProt Q9NTX5),-3.39,-2.54
SNRK (UniProt Q9NRH2),0.635,-1.02
UniProt Q9NR48,2.07,1.96
UniProt Q9HCM4,2.12,1.03
POLR1B (UniProt Q9H9Y6),-1.21,-0.0897
MEAF6 (UniProt Q9HAF1),-0.177,0.378
UniProt Q9H9B1,-1.62,-0.415
VPS45 (UniProt Q9NRW7),0.195,0.055
MRPS30 (UniProt Q9NP92),1.4,0.476
UniProt Q9NS15,-0.402,-1.95

Target,melting temperature shift (MBE1 concentration: 100 nM) [°C],melting temperature shift (MBE1 concentration: 1 uM) [°C]
DIAPH3 (UniProt Q9NSV4),-2,-0.394
DCP1A (UniProt Q9NPI6),-1.55,-1.19
SACM1L (UniProt Q9NTJ5),-0.0235,-0.16
TRMT13 (UniProt Q9NUP7),0.627,0.0488
UniProt Q9HCN3,-1.06,-0.293
CYLD (UniProt Q9NQC7),-1.68,-0.452
DMAP1 (UniProt Q9NPF5),-0.416,-0.788
SMC4 (UniProt Q9NTJ3),0.232,0.104
BIN3 (UniProt Q9NQY0),-1.33,-0.365
UniProt Q9NSB8,-2.53,-0.806
MDN1 (UniProt Q9NU22),0,0
UniProt Q9NQX7,-2.42,-1.82
FN3KRP (UniProt Q9HA64),-1.39,-2.42
EIF4ENIF1 (UniProt Q9NRA8),0.674,-0.83
UniProt Q9NQL2,-2.45,-3.82
PDF (UniProt Q9HBH1),-1.17,-0.647
MOV10 (UniProt Q9HCE1),2.14,1.29
TM9SF3 (UniProt Q9HD45),-0.0805,0.751
SH3GLB2 (UniProt Q9NR46),0.0733,0.0282
C12ORF10 (UniProt Q9HB07),-1.51,-0.122
